# PubChem BioAssay AID624297 (National Center for Advancing Translational Sciences (NCATS), 2012)
# Among all 340,000 compounds or so, about 6,200 (1.8%) were called active. The shares of active, inactive and inconclusive entries below differ from those in the screen. Calls follow the shape of the dose curve; as a rule, active = well fitted activation curve with a large enough effect; inconclusive = small, poorly fitted or top-dose-only effect; inactive = no such curve, though single readings can be large or run the other way. A potency beside an inconclusive call is a rough fit, not a confirmed value.
# Assay: A quantitative high throughput screen for small molecules that induce DNA re-replication in SW480 colon adenocarcinoma cells. Also: nearly all actives have a fitted effect of over 55% in size. As to re-replication activation: % of control where 0% means no effect.
# Conditions: Hoechst DNA content imaging, 48 h; re-replication activation: at 46.1 µM (top of the series) unless noted
# In short: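 Image-based DNA-content assay: after two days of treatment, nuclei were labelled with the DNA dye Hoechst and imaged, and hits were compounds raising the count of nuclei showing high fluorescence intensity.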
# Potency is read from the fitted curve at half-maximal effect.
Compound,Potency,re-replication activation
COc1ccc(N(C(=O)c2ccco2)S(=O)(=O)c2cc(Cl)c(Cl)cc2Cl)cc1,"inconclusive: 20.6 µM [activator, single point]",
COCOc1ccc(/C=C2/Oc3cc(OCOC)cc(OCOC)c3C2=O)c(OCOC)c1,"inconclusive: 2.91 µM [activator, full curve]",
O=S(=O)(c1ccccc1)c1ncc(C(F)(F)F)cc1Cl,"inconclusive: 3.66 µM [activator, partial curve, poor fit]",
CCC(C)c1ccc(O)c(N)c1 (centres undefined),"inconclusive: 23.1 µM [activator, single point]",
O=C(NC(=O)N1CCCC1)c1csnn1,"inconclusive: 29.1 µM [activator, single point]",
CSc1ccc(/C=N/n2c(C3CCCCC3)n[nH]c2=S)cc1,"inconclusive: 29.1 µM [activator, single point]",
COc1cc(NCCCNC(C)C)c2nccc(C)c2c1,"inconclusive: 5.8 µM [activator, partial curve, poor fit]",
Cc1cc(C)nc(NC(=O)c2ccccc2O)n1,,inactive: -12.6%
CCc1nnc(NC(=O)C2Cc3ccccc3CN2S(=O)(=O)CC)s1 (centres undefined),,inactive: 0.821%
CC(=O)/C(N=Nc1cc2c(cc1[N+](=O)[O-])OCCO2)=C(\C)O,,inactive: 7.29%
O=C(CCl)N(Cc1cccc([N+](=O)[O-])c1)c1cccc(Cl)c1,"inconclusive: 1.46 µM [activator, partial curve, poor fit]",
CCCCc1nc(NCCNC(=O)c2ccco2)c(C#N)c2c1CSC(C)(C)C2,"inconclusive: 16.4 µM [activator, partial curve, poor fit]",
CCc1ccc(/C=N/NC(=O)c2cc(-c3ccncc3)nc3ccccc23)s1,active: 3.66 µM,
Cc1[nH]c(C)c(S(=O)(=O)N2CCN(c3ccccc3F)CC2)c1C(=O)N1CCCC1,,inactive: -25.3%
CCCN1CCC(=O)N([C@H](CSc2ccc(C)cc2)Cc2ccccc2)CC1,,inactive: 3.35%
COCCCn1c(=O)/c(=C\c2ccc(OC(F)F)c(OC)c2)s/c1=C(/C#N)C(=O)NCCOC,"inconclusive: 5.8 µM [activator, single point]",
CC(C)N(Cc1nnc(-c2ccc(Cl)cc2)o1)C(=O)c1cc2ccccc2o1,,inactive: 0.591%
CCOC(=O)c1c(/N=C/c2cccc([N+](=O)[O-])c2O)sc2c1CCC2,"inconclusive: 6.51 µM [activator, partial curve, poor fit]",
CCOC(=O)C(C)Sc1nc(N)c(NC(=O)c2ccc(OC)c(OC)c2)c(=O)[nH]1 (centres undefined),,inactive: -4.31%
Cc1cc(-n2cnc(-c3cn(C)nc3C)n2)no1,"inconclusive: 29.1 µM [activator, partial curve, poor fit]",
CCOC(=O)CSc1nc2sc3c(c2c(=O)n1-c1ccc(OC)cc1)CCN(C)C3,,inactive: -0.43%
CCOc1ccc(-c2cc(C(=O)OC)nc3c2c(=O)n(C)c(=O)n3C)cc1,"inconclusive: 29.1 µM [activator, single point]",
CCCCNc1ccc2c3c(cccc13)C(=O)N(CCCC)C2=O,active: 20.6 µM,

# 3 entries picked at random from those above:
Compound,Potency,re-replication activation
CCCCNc1ccc2c3c(cccc13)C(=O)N(CCCC)C2=O,active: 20.6 µM,
O=C(CCl)N(Cc1cccc([N+](=O)[O-])c1)c1cccc(Cl)c1,"inconclusive: 1.46 µM [activator, partial curve, poor fit]",
CC(=O)/C(N=Nc1cc2c(cc1[N+](=O)[O-])OCCO2)=C(\C)O,,inactive: 7.29%

# The list goes on:

Compound,Potency,re-replication activation
CCC(C)NC(=O)CCC(=O)Nc1ccc2nc(N3CC(C)CC(C)C3)cc(C)c2c1 (centres undefined),"inconclusive: 29.1 µM [activator, single point]",
CCC(=O)N/C(N)=N/c1nc(C)c2cc(OC)ccc2n1,"inconclusive: 16.4 µM [activator, single point]",
CCOc1ccc(/C=C/C(=O)OCC(=O)Nc2cccc(S(=O)(=O)N3CCCC3)c2)cc1,"inconclusive: 29.1 µM [activator, single point]",
Cc1cccc(N2C(=O)C3CCCN3C2=S)c1 (centres undefined),"inconclusive: 29.1 µM [activator, single point]",
Cn1cnnc1SC1CCCCC1NS(=O)(=O)c1ccc(Cl)cc1 (centres undefined),"inconclusive: 29.1 µM [activator, single point]",
COc1cc(C2C(C#N)=C(N)Oc3cc(O)ccc32)cc2c1OCO2 (centres undefined),,inactive: -18.3%
N#Cc1c(N)nc(SCc2ccccc2)c(C#N)c1-c1ccco1,,inactive: -3.42%
CCOC(=O)c1c(NC(=O)C2CCCCC2)sc2c1CCN(C(C)C)C2,"inconclusive: 5.8 µM [activator, full curve, poor fit]",
CCCCCCCCCCCCCCCC(=O)OC(CC(=O)O)C[N+](C)(C)C (centres undefined),active: 0.58 µM,
CC1CC(C)CN(c2oc(Cc3ccccc3)nc2C#N)C1 (centres undefined),,inconclusive: -265% [activator]
CCCc1nnc(SCC(=O)N2CCCC(C)C2)n1CCOC (centres undefined),"inconclusive: 5.17 µM [activator, partial curve, poor fit]",
CCN1CCc2c(sc(NC(=O)c3cc4ccccc4cc3OC)c2C(N)=O)C1,active: 11.6 µM,
O=C(/C=C/c1ccco1)Oc1cccc2cccnc12,"inconclusive: 29.1 µM [activator, single point]",
C/C=C/COC(=O)c1[nH]c2c(c1C)C(=O)CC(c1ccc(N(C)C)cc1)C2 (centres undefined),"inconclusive: 29.1 µM [activator, single point]",
CCCCCn1c(=O)c2ccccc2n2c(CCl)nnc12,"inconclusive: 32.6 µM [activator, partial curve, poor fit]",
COc1ccccc1-c1cc(C(F)(F)F)nc(NCc2ccco2)n1,"inconclusive: 32.6 µM [activator, partial curve, poor fit]",
O=C(N/N=C/c1cc(Br)ccc1O)c1ccccc1Cl,"inconclusive: 4.11 µM [activator, full curve]",
Cc1nn(C)c(C(=O)NNC(=S)Nc2ccc(Cl)cc2)c1[N+](=O)[O-],"inconclusive: 4.11 µM [activator, single point]",
CSCC[C@@H](C(=O)Nc1ccc2c(c1)OCCO2)N1Cc2ccccc2C1=O,"inconclusive: 29.1 µM [activator, single point]",
O=C(NCCN1CCOCC1)c1cc(-c2ccc(Cl)s2)nc2ccccc12,"inconclusive: 18.4 µM [activator, single point]",
COc1ccc(CN(C(=O)CSc2nnc(-c3ccccc3C)o2)c2ccc(F)cc2)cc1,"inconclusive: 23.1 µM [activator, single point]",
CCOC(=O)c1cc(-c2ccccc2)sc1NC(=O)C(C)Sc1nnc(N)s1 (centres undefined),"inconclusive: 14.6 µM [activator, partial curve, poor fit]",
CC(C)(C)c1csc(NC(=O)c2ccc(Br)o2)n1,"inconclusive: 1.3 µM [activator, partial curve, poor fit]",

# An excerpt of these results, with tabs.
Compound	Potency	re-replication activation
CCOC(=O)C(C)Sc1nc(N)c(NC(=O)c2ccc(OC)c(OC)c2)c(=O)[nH]1 (centres undefined)		inactive: -4.31%
Cc1cc(-n2cnc(-c3cn(C)nc3C)n2)no1	inconclusive: 29.1 µM [activator, partial curve, poor fit]	
CCOC(=O)CSc1nc2sc3c(c2c(=O)n1-c1ccc(OC)cc1)CCN(C)C3		inactive: -0.43%

# (further entries)

Compound,Potency,re-replication activation
COc1cccc(NC(=O)CN(C)C(=O)C2=COCCO2)c1,"inconclusive: 18.4 µM [activator, single point]",
CCN(CC(=O)Nc1c(F)cccc1F)C(=O)C1(c2ccccc2)CC1,,inactive: -3.35%
Cc1ccc2nc(NCC(=O)NN)nc(-c3ccccc3)c2c1,"inconclusive: 29.1 µM [activator, single point]",
Cc1ccc(Sc2ccc(NC(=O)CCN3C(=O)NC4(CCCC4)C3=O)cc2)c(C)c1,,inactive: -1.79%
Cc1ccc(C2N(C)c3ccccc3-c3nc4ccccc4n32)o1 (centres undefined),"inconclusive: 18.4 µM [activator, single point]",
O=C(Nc1ccon1)c1ccc(S(=O)(=O)N2CCOCC2)cc1,"inconclusive: 1.16 µM [activator, partial curve, poor fit]",
CC(C)(C)NC(=O)CSc1nnc(C2CC2)n1-c1ccccc1,,inactive: -0.149%
CCN(CC)S(=O)(=O)c1ccc(OC)c(NS(=O)(=O)Cc2ccccc2)c1,"inconclusive: 2.31 µM [activator, partial curve, poor fit]",
O=C(NCCc1c[nH]c2ccccc12)OCCCCOC(=O)NCCc1c[nH]c2ccccc12,,inactive: 0.125%
C=CCn1c(COc2ccc(CC)cc2)nnc1SC/C(O)=C(\C#N)c1nc2ccccc2[nH]1,,inactive: 2.94%
COC(=O)c1cn(NC(=O)c2cnccn2)c(=O)c2ccccc12,"inconclusive: 29.1 µM [activator, single point]",
N=c1c(C(=O)NC2CCCCC2)cc2c(=O)n3ccccc3nc2n1Cc1cccnc1,active: 14.6 µM,
COc1ccc(NC(=O)CSc2nnc(Cc3cccn3C)n2CCc2ccccc2)cc1OC,,inactive: -6.2%
Cc1cccc(NC(=O)CC2C(=O)NCCN2C(=O)Nc2ccc(Cl)cc2)c1 (centres undefined),"inconclusive: 6.51 µM [activator, single point]",
CCC(=O)N/N=C(\C)CC(=O)Nc1cc(Cl)ccc1C,"inconclusive: 32.6 µM [activator, partial curve, poor fit]",
COc1ccc(CNC(=O)Nc2ccc(OC)cc2)cc1,"inconclusive: 29.1 µM [activator, single point]",
O=C(COc1ccccc1F)N1CCN(S(=O)(=O)/C=C/c2ccccc2)CC1,,inactive: -87.2%
CC(C)c1ccc(/C=N/NC(=O)CN(c2cccc(Cl)c2Cl)S(C)(=O)=O)cc1,"inconclusive: 29.1 µM [activator, single point]",
CCCn1c(=N)n(CC(O)COc2ccc(C)cc2)c2ccccc21 (centres undefined),"inconclusive: 2.31 µM [activator, full curve, poor fit]",
CCCCc1ccc(NC(=O)COCC)cc1,"inconclusive: 3.66 µM [activator, full curve, poor fit]",
C=CCn1c(NCCO)nc2sc3c(c2c1=O)CCC3,,inactive: -5.37%
CCn1nc(NC(=O)c2ccccc2)c2cc3cccc(C)c3nc21,active: 11.6 µM,
COc1ccc2c(c1)CCC/C2=N\OC(=O)c1ccccc1F,"inconclusive: 2.51 µM [activator, partial curve, poor fit]",
